From the supplement of paper PMC12823440, “Inhibitors supercharge kinase turnover through native proteolytic circuits” (Nature, 2025)
Counter-ions that a name gives are not always drawn. The list shows a part of the results. The calls rarely recur for the same compound in another form.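 Kinases, fused to nanoluciferase, were expressed in K562 cells; luminescence was measured every 4 h from 2 to 18 h as percent of control (DMSO = 100%, positive control = 0%). A time point is decreased if signal falls significantly (2 sigma). Hits were called by the authors by a rule that is not shown; the count of time points alone does not decide it.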

Protein sequences, listed by entry. Tags and fused reporters are not part of them. Lines headed by an entry give the natural chain unless they say otherwise; changes in a name come on top.
UniProt O15530: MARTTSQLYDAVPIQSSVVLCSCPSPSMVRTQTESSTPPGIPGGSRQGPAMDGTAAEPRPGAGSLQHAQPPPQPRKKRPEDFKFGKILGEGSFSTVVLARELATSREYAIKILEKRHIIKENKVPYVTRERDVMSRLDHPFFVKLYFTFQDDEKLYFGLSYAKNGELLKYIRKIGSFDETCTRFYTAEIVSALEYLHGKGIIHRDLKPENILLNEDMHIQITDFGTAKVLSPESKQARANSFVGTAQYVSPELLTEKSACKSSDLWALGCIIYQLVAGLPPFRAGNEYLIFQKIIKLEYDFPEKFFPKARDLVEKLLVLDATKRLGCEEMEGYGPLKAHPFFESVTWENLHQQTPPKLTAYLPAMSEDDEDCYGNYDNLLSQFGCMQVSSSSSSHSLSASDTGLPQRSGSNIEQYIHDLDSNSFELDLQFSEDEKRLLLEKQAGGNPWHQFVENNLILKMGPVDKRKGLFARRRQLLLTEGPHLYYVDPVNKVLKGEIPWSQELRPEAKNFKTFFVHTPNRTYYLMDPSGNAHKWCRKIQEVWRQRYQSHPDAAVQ
UniProt P42356, whole entry, looked up: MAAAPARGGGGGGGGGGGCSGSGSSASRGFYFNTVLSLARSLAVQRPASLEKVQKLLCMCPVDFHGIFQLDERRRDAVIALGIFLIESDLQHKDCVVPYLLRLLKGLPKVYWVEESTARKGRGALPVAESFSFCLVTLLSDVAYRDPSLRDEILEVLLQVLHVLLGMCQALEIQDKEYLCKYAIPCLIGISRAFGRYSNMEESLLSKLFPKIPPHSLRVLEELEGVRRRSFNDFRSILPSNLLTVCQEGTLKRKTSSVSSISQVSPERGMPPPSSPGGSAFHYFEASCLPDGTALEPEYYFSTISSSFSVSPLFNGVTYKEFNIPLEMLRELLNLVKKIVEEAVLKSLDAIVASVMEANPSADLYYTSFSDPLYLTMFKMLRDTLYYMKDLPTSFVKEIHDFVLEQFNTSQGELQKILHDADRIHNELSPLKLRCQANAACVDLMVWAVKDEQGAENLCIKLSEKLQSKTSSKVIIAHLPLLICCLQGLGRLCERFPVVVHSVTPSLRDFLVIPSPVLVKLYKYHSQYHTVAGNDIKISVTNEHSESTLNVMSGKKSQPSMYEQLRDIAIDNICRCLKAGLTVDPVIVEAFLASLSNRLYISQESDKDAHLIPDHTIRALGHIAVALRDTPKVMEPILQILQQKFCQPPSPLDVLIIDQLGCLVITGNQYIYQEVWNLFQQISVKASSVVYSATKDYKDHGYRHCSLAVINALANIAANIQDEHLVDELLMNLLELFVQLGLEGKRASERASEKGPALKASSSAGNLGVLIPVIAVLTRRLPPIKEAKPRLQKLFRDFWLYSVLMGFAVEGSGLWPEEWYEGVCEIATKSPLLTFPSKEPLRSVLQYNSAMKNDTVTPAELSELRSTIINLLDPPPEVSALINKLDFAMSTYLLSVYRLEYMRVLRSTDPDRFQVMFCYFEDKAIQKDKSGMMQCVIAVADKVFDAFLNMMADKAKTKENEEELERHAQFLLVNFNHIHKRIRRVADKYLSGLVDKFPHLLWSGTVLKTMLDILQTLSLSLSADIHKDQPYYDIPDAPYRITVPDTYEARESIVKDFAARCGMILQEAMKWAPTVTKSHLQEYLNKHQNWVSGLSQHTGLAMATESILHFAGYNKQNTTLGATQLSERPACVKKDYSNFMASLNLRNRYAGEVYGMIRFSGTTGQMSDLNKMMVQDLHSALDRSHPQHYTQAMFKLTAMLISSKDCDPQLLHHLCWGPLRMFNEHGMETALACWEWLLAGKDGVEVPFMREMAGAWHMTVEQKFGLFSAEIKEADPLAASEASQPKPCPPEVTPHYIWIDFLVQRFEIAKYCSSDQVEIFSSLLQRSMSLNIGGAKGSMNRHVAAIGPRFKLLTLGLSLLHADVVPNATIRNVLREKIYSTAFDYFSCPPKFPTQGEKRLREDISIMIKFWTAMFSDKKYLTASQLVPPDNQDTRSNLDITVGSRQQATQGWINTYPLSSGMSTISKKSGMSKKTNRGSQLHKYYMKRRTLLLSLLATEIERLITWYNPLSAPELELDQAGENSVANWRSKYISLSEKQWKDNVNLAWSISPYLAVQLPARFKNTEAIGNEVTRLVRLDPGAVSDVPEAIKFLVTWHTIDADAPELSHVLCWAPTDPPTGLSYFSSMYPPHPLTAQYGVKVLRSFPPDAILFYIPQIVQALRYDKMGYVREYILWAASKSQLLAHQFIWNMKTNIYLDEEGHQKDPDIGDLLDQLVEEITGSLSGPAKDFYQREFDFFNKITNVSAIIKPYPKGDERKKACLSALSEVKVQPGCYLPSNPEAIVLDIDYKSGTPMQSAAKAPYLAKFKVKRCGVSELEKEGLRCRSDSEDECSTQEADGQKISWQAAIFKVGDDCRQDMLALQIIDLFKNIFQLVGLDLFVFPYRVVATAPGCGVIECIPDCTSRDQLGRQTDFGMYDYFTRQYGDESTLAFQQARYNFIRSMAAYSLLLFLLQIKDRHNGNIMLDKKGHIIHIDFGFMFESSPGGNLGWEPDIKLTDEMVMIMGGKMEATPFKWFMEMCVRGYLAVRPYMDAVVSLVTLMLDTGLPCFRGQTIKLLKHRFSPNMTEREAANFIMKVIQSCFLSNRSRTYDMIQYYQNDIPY
UniProt Q9UBF8: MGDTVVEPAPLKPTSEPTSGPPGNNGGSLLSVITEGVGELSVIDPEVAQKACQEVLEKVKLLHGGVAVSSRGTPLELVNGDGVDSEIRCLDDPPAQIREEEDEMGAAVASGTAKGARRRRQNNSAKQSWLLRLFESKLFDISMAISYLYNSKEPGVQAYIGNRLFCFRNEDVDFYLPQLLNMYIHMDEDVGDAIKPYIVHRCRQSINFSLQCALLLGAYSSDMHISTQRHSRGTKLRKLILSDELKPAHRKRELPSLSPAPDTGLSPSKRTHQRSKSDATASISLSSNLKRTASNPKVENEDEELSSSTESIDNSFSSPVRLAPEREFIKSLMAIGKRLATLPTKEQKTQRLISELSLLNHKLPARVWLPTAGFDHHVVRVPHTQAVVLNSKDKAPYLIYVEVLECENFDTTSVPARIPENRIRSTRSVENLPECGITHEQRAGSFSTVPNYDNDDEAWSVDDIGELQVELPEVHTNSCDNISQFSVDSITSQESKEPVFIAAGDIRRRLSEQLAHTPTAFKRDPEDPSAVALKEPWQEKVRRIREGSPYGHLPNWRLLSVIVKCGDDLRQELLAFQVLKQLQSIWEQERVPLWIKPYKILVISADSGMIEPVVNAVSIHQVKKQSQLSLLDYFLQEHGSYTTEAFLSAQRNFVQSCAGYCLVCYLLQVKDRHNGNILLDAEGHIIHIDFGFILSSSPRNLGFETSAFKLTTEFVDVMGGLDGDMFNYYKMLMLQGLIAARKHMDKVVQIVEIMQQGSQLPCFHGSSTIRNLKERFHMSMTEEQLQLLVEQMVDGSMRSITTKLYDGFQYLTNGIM
UniProt P53350, whole entry: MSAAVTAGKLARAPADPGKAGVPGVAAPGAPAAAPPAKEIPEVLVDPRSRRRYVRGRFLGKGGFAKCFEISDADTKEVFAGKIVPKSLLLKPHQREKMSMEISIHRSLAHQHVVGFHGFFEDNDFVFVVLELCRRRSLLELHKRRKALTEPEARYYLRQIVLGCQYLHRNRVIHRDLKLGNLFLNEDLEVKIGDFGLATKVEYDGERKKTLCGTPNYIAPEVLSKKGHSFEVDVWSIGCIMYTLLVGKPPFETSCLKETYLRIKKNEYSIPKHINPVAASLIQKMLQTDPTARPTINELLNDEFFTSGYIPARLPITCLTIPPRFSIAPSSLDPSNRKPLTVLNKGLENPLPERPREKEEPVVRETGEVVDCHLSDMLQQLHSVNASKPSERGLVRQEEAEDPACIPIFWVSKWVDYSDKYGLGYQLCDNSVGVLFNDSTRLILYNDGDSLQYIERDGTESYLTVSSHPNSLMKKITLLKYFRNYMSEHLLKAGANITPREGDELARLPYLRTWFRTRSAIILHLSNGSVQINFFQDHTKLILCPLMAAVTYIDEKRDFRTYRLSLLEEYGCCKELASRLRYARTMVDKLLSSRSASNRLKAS
UniProt Q13131: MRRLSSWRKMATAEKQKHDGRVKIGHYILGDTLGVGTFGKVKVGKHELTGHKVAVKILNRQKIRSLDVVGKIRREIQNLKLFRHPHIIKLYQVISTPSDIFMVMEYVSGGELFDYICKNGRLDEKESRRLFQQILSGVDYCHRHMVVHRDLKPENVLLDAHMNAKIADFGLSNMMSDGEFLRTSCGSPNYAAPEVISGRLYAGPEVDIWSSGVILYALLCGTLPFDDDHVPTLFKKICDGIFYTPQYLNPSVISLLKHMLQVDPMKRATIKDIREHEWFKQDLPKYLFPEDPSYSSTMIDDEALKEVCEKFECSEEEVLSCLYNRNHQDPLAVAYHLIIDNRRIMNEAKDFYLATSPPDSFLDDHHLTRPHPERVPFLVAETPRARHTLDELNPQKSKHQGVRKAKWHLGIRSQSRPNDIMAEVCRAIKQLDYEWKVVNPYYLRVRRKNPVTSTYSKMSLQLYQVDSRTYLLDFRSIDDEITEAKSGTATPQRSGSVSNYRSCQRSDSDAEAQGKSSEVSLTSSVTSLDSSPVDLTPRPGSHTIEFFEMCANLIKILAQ
UniProt Q14289, whole entry, looked up: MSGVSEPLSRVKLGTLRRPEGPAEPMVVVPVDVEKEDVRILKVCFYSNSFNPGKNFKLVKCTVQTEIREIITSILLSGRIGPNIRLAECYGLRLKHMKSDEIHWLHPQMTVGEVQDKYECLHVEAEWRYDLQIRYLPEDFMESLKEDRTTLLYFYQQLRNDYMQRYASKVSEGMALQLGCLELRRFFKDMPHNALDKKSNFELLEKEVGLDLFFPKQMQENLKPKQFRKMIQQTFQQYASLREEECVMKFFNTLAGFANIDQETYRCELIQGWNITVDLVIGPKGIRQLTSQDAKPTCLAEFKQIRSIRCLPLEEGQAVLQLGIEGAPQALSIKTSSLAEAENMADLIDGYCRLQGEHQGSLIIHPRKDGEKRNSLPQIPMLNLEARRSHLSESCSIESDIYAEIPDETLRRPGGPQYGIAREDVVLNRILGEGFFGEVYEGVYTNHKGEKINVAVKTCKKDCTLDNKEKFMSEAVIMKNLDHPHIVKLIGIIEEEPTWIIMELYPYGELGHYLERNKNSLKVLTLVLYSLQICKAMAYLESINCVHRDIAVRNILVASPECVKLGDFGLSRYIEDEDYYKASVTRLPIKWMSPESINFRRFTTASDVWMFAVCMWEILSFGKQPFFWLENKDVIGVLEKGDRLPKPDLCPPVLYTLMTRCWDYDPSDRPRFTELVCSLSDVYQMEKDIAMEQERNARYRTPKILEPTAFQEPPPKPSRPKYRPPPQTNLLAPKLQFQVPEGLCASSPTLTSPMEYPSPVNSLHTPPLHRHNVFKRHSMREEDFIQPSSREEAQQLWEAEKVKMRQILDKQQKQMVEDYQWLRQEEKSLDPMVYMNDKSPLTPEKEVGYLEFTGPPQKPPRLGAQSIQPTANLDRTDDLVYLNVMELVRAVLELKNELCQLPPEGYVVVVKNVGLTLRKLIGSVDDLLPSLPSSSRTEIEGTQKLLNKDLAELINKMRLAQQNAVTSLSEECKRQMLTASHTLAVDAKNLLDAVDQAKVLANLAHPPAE

How the values were obtained:
Experiment in all cases: kinase-Nluc reporter destabilization hit call (1 = scored as downregulated) (binary); higher = compound decreases kinase abundance
Settings in all cases: K562, 2-18 h
[1] = biological target: PDPK1 (UniProt O15530)
[2] = biological target: PIK4CA (UniProt P42356)
[3] = biological target: PIK4CB (UniProt Q9UBF8)
[4] = biological target: PLK1 (UniProt P53350)
[5] = biological target: PRKAA1 (UniProt Q13131)
[6] = biological target: PRKCA (UniProt P17252)
[7] = biological target: PTK2 (UniProt Q05397)
[8] = biological target: PTK2B (UniProt Q14289)
[9] = biological target: RAF1 (UniProt P04049)
[10] = biological target: RAF1_S257L (clone: RAF1_mut) (UniProt P04049)

Measured: kinase-Nluc reporter destabilization hit call

COc1ccc(-c2cc3nccn3c(Nc3ncccc3C(N)=O)n2)cc1OC [BAY 61-3606 (dihydrochloride)]
inactive: [1]; 2.5 µM 0 | [2]; 2.5 µM 0 | [3]; 2.5 µM 0 | [4]; 2.5 µM 0 | [5]; 2.5 µM 0 | [6]; 2.5 µM 0 | [7]; 2.5 µM 0 | [8]; 2.5 µM 0 | [9]; 2.5 µM 0 | [10]; 2.5 µM 0

CC1(C)C(=O)N([C@H]2CCc3c(O)cccc32)c2nc(Nc3cccc(CN4CCCC4)c3)ncc21
inactive: [1]; 2.5 µM 0 | [2]; 2.5 µM 0 | [3]; 2.5 µM 0 | [4]; 2.5 µM 0 | [6]; 2.5 µM 0 | [7]; 2.5 µM 0 | [8]; 2.5 µM 0 | [9]; 2.5 µM 0 | [10]; 2.5 µM 0

O=C1Cc2c([nH]c3ccc(Br)cc23)-c2ccccc2N1 [Kenpaullone]
inactive: [1]; 10 µM 0 | [2]; 10 µM 0 | [3]; 10 µM 0 | [4]; 10 µM 0 | [5]; 10 µM 0 | [6]; 10 µM 0 | [7]; 10 µM 0 | [8]; 10 µM 0 | [9]; 10 µM 0 | [10]; 10 µM 0

C[C@@]1(C(=O)Nc2ccc(F)nc2)CCCN1c1nc(Nc2cc(C3CC3)n[nH]2)c2cccn2n1
inactive: [1]; 10 µM 0 | [2]; 10 µM 0 | [3]; 10 µM 0 | [4]; 10 µM 0 | [5]; 10 µM 0 | [6]; 10 µM 0 | [7]; 10 µM 0 | [8]; 10 µM 0 | [9]; 10 µM 0 | [10]; 10 µM 0

O=S(=O)(c1cccc2c(O)nccc12)N1CCCNCC1 [Hydroxyfasudil]
inactive: [1]; 10 µM 0 | [2]; 10 µM 0 | [3]; 10 µM 0 | [5]; 10 µM 0 | [6]; 10 µM 0 | [8]; 10 µM 0 | [9]; 10 µM 0 | [10]; 10 µM 0

Cc1cc2ncnn2cc1Nc1ncc2c(n1)n(C1CCOCC1)c(=O)n2C
inactive: [1]; 10 µM 0 | [2]; 10 µM 0 | [3]; 10 µM 0 | [4]; 10 µM 0 | [5]; 10 µM 0 | [6]; 10 µM 0 | [7]; 10 µM 0 | [8]; 10 µM 0 | [10]; 10 µM 0

CC[C@@H]1C(=O)N(C)c2cnc(Nc3ccc(C(=O)NC4CCN(C)CC4)cc3OC)nc2N1C1CCCC1
inactive: [1]; 10 µM 0 | [2]; 10 µM 0 | [3]; 10 µM 0 | [5]; 10 µM 0 | [6]; 10 µM 0 | [7]; 10 µM 0 | [8]; 10 µM 0 | [9]; 10 µM 0 | [10]; 10 µM 0

Cc1[nH]c(/C=C2\C(=O)Nc3ccc(F)cc32)c(C)c1C(=O)NC[C@H](O)CN1CCOCC1
inactive: [1]; 2.5 µM 0 | [2]; 2.5 µM 0 | [3]; 2.5 µM 0 | [4]; 2.5 µM 0 | [5]; 2.5 µM 0 | [6]; 2.5 µM 0 | [7]; 2.5 µM 0 | [9]; 2.5 µM 0 | [10]; 2.5 µM 0

Cc1cc2c(F)c(Oc3ncnn4cc(OC[C@@H](C)O)c(C)c34)ccc2[nH]1 [Brivanib]
inactive: [1]; 10 µM 0 | [2]; 10 µM 0 | [3]; 10 µM 0 | [4]; 10 µM 0 | [5]; 10 µM 0 | [6]; 10 µM 0 | [7]; 10 µM 0 | [8]; 10 µM 0 | [9]; 10 µM 0 | [10]; 10 µM 0

CC(=O)c1c(C)c2cnc(Nc3ccc(N4CCN(C(=O)CCCCCC(=O)N[C@H](C(=O)N5C[C@H](O)C[C@H]5C(=O)NCc5ccc(-c6scnc6C)cc5)C(C)(C)C)CC4)cn3)nc2n(C2CCCC2)c1=O
inactive: [1]; 2.5 µM 0 | [2]; 2.5 µM 0 | [3]; 2.5 µM 0 | [4]; 2.5 µM 0 | [5]; 2.5 µM 0 | [6]; 2.5 µM 0 | [7]; 2.5 µM 0 | [8]; 2.5 µM 0 | [10]; 2.5 µM 0

CN1CCN(c2ccc3nc(-c4c(N)c5c(F)cccc5[nH]c4=O)[nH]c3c2)CC1 [Dovitinib (lactate)]
inactive: [1]; 2.5 µM 0 | [2]; 2.5 µM 0 | [3]; 2.5 µM 0 | [4]; 2.5 µM 0 | [5]; 2.5 µM 0 | [6]; 2.5 µM 0 | [8]; 2.5 µM 0 | [9]; 2.5 µM 0 | [10]; 2.5 µM 0

N#CC(=Cc1cc(Cl)cc(Cl)c1)c1cccnc1
inactive: [4]; 10 µM 0 | [7]; 10 µM 0 | [9]; 10 µM 0

CN1CCN(c2ccc3nc(-c4c(N)c5c(F)cccc5[nH]c4=O)[nH]c3c2)CC1 [Dovitinib]
inactive: [1]; 2.5 µM 0 | [2]; 2.5 µM 0 | [3]; 2.5 µM 0 | [4]; 2.5 µM 0 | [5]; 2.5 µM 0 | [6]; 2.5 µM 0 | [8]; 2.5 µM 0 | [9]; 2.5 µM 0 | [10]; 2.5 µM 0

CCOc1nc(NC(=O)Cc2cc(OC)ccc2OC)cc(N)c1C#N [JNK Inhibitor VIII]
inactive: [1]; 10 µM 0 | [2]; 10 µM 0 | [3]; 10 µM 0 | [4]; 10 µM 0 | [5]; 10 µM 0 | [6]; 10 µM 0 | [7]; 10 µM 0 | [8]; 10 µM 0 | [9]; 10 µM 0 | [10]; 10 µM 0

Cc1cc(C)n2c1C=C1C=CC(CCC(=O)NCCN3CCN(C/C=C/C(=O)N4CCCC(n5nc(-c6ccc(Oc7ccccc7)cc6)c6c(N)ncnc65)C4)CC3)=[N+]1[B-]2(F)F (stereo not drawn)
inactive: [1]; 2.5 µM 0 | [2]; 2.5 µM 0 | [3]; 2.5 µM 0 | [4]; 2.5 µM 0 | [5]; 2.5 µM 0 | [6]; 2.5 µM 0 | [7]; 2.5 µM 0 | [8]; 2.5 µM 0 | [9]; 2.5 µM 0 | [10]; 2.5 µM 0

CCN(CC)CCNC(=O)c1c(C)[nH]c(/C=C2\C(=O)Nc3ccc(F)cc32)c1C [Sunitinib]
inactive: [1]; 2.5 µM 0 | [2]; 2.5 µM 0 | [3]; 2.5 µM 0 | [4]; 2.5 µM 0 | [5]; 2.5 µM 0 | [6]; 2.5 µM 0 | [8]; 2.5 µM 0 | [9]; 2.5 µM 0 | [10]; 2.5 µM 0

Copied from the results shown (2 entries):
CCOc1nc(NC(=O)Cc2cc(OC)ccc2OC)cc(N)c1C#N [JNK Inhibitor VIII]
inactive: [1]; 10 µM 0 | [2]; 10 µM 0 | [3]; 10 µM 0 | [4]; 10 µM 0 | [5]; 10 µM 0 | [6]; 10 µM 0 | [7]; 10 µM 0 | [8]; 10 µM 0 | [9]; 10 µM 0 | [10]; 10 µM 0

Cc1cc(C)n2c1C=C1C=CC(CCC(=O)NCCN3CCN(C/C=C/C(=O)N4CCCC(n5nc(-c6ccc(Oc7ccccc7)cc6)c6c(N)ncnc65)C4)CC3)=[N+]1[B-]2(F)F (stereo not drawn)
inactive: [1]; 2.5 µM 0 | [2]; 2.5 µM 0 | [3]; 2.5 µM 0 | [4]; 2.5 µM 0 | [5]; 2.5 µM 0 | [6]; 2.5 µM 0 | [7]; 2.5 µM 0 | [8]; 2.5 µM 0 | [9]; 2.5 µM 0 | [10]; 2.5 µM 0
